Data reported in paper doi:10.1101/2024.01.09.574928.
Like-named read-outs stand apart in the source and are kept apart here. For some assays here: Negatives hold for the conditions tested. For some assays here: Construct, isoform or probe ends are uncertain for at least one entry. For some assays here: A weaker result is weaker than the reference pair of the same experiment. For some assays here: At least one verdict rests on a figure or table, not on a statement of the authors. For some assays here: Protein sequences can lack the tags named with them. For some assays here: Where cells or extracts were used, other partners may take part.

The chains behind the UniProt entries cited, without tags or fusion partners. Where a name states a change or a piece, a line headed by the entry shows the natural chain unless it says otherwise.
UniProt Q9UPN6: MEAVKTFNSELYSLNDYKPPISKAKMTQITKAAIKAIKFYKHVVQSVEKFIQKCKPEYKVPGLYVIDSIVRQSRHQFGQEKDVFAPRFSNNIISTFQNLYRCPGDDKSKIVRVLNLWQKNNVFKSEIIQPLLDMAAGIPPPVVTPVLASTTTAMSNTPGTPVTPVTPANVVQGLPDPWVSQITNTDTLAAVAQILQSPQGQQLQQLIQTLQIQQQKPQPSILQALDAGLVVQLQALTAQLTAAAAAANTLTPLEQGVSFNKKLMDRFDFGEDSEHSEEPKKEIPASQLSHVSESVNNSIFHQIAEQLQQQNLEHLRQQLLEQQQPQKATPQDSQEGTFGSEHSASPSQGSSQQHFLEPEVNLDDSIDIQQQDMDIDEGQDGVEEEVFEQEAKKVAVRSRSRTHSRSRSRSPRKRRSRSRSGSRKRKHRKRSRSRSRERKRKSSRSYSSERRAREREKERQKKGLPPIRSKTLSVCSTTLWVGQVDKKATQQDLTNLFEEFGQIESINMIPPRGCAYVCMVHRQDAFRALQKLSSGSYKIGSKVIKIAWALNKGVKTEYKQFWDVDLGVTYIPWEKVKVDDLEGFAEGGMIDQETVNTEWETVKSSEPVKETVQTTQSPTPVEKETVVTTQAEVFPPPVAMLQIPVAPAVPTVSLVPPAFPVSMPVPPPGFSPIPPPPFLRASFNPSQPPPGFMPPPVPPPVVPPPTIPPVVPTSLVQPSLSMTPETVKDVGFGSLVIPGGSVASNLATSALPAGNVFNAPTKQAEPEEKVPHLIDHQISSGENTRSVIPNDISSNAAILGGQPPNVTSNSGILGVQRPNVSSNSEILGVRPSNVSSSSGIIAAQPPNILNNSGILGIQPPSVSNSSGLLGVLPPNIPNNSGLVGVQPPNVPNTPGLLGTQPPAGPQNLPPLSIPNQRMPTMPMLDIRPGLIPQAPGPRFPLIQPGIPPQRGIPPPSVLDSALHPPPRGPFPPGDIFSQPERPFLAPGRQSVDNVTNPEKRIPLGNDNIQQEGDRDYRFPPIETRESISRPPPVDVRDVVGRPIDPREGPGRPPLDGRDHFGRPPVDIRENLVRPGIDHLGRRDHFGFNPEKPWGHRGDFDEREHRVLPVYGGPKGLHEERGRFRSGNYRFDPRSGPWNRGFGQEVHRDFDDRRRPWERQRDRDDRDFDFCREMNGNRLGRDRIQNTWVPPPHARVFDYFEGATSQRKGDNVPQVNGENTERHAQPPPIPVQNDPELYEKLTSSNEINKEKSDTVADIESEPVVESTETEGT

Tests used:
SCAF4 (endogenous) = SCAF4 (endogenous) (UniProt O95104); test: pull-down; conditions: HCT116 lysate, protein in an extract
SCAF8 (endogenous) = SCAF8 (endogenous) (UniProt Q9UPN6); test: pull-down; conditions: HCT116 lysate, protein in an extract
SCAF4-CID (human) = molecular target: T1, SCAF4-CID (human) (UniProt O95104); test: SPR; conditions: 10 uM, weak or negligible response; residues 1-139
T1 sequence (looked up): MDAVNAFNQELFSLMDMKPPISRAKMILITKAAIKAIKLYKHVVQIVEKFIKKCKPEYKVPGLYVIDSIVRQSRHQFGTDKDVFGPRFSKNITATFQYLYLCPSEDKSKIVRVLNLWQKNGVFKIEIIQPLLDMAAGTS

streptavidin = streptavidin (UniProt P22629); test: specificity binding assay
WDR5 V268 mutant = WDR5 V268 mutant (UniProt P61964); test: fluorescence polarization
WDR5 N225 mutant = WDR5 N225 mutant (UniProt P61964); test: fluorescence polarization
BSA = BSA (UniProt P02769); test: specificity binding assay; conditions: letters put together from the description
[1] = letters put together from the description

ATGACTCCCCACCCCTTTAA [RC of SRiApt-3]
binding result (SCAF4 (endogenous)): no binding | binding result (SCAF8 (endogenous)): no binding

CTCCCCACCCC [RC of SRiApt-1]
binding result (SCAF4 (endogenous)): no binding | binding result (SCAF8 (endogenous)): no binding

CTGGG
binding result (SCAF4-CID (human)): binds more weakly

GGGGGCTGGACCCCTCAACT [WMiApt-1]
binding result (streptavidin): no binding | binding result (WDR5 V268 mutant): binds more weakly | binding result (WDR5 N225 mutant): binds more weakly

GGGGTGGGGAG [SRiApt-1 (SCAF4_F3_11nt)]
binding result (BSA): no binding | binding result (streptavidin; [1]): no binding

GGGGTGGGGAG [SRiApt-1 biotinylated]
binding result (SCAF4 (endogenous); [1]): binds | binding result (SCAF8 (endogenous); [1]): binds

TTAAAGGGGTGGGGAGTCAT [SRiApt-3 biotinylated]
binding result (SCAF4 (endogenous); [1]): binds | binding result (SCAF8 (endogenous); [1]): binds
